This is an account of results in PMC6901440.

By UniProt entry, the sequences of proteins in these tests, tags left out. Where a name states a change or a piece, a line headed by the entry shows the natural chain unless it says otherwise.
UniProt Q8NB16: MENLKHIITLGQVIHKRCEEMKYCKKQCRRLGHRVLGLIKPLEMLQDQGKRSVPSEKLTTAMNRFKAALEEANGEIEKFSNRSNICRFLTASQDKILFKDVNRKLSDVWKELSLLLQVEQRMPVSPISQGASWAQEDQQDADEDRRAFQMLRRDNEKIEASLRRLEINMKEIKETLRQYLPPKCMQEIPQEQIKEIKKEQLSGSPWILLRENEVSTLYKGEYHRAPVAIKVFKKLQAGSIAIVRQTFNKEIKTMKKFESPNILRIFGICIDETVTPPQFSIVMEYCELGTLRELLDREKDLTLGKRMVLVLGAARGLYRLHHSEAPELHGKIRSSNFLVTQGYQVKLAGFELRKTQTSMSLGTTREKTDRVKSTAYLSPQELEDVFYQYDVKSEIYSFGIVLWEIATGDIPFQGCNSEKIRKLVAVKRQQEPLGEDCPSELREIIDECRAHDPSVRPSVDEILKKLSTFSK
UniProt P10415: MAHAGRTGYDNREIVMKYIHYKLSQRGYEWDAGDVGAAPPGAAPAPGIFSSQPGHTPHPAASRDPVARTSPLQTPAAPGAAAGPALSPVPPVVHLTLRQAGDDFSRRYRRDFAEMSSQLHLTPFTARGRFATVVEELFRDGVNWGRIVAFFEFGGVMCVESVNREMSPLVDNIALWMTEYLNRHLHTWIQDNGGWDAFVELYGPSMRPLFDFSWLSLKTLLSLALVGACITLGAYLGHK

The target in this test is Flag-MLKL T357D/S358E phosphorylation mimic (human) (UniProt Q8NB16). Briefly: co-IP; HEK-293T cells transfected with Flag-tagged GSDMD or MLKL constructs and Bcl-2 or Bcl-2 G145A (MLKL also with RIP3); anti-Flag agarose beads; Bcl-2 detected by blot; washed eight times with lysis buffer.

These are yes or no findings as the source states them, for the method shown. In cells and extracts the contact can be indirect. Binding calls can cover weak binding; strength is not graded here.

For “Bcl-2 (transfected, HEK-293T) (from UniProt P10415 1-239)”, the binding entry is recorded as “binds”.
